Among all 72,000 compounds or so, about 1,600 (2.2%) were called active. The source calls these results inconclusive, neither active nor inactive. Calls come from the whole dose curve; as a rule, active = well fitted inhibition curve with a large enough effect; inconclusive = small, poorly fitted or top-dose-only effect; inactive = flat fitted curve, though single readings scatter.
Target: Luciferin 4-monooxygenase (Photinus pyralis) (UniProt P08659)
Assay: qHTS Assay for Inhibitors of Firefly Luciferase; note: nearly all actives have a fitted effect of over 40% in size
Conditions: purified firefly luciferase, luminescence, 8 min
Experimental: To aid in the interpretation of high-throughput screening (HTS) results derived from luciferase-based assays, we used quantitative HTS, an approach that defines the concentration-response behavior of each library sample, to profile the ATP-dependent luciferase from Photinus pyralis against more than 72 000 samples. Luciferase (PKLight, Cambrex Corporation) was assayed for its ability to generate light using ATP and luciferin as substrates. The ATP concentration in the assay (10 uM) was within the linear range of enzyme activity for the assay conditions used. See following reference for further details: [1] Auld DS, Southall NT, Jadhav A, Johnson RL, Diller DJ, Simeonov A, Austin CP, Inglese J. Characterization of chemical libraries for luciferase inhibitory activity. J Med Chem. 2008 Apr 24;51(8):2372-86. […] Quantitative high-throughput screening: a titration-based approach that efficiently identifies biological activities in large chemical libraries. […]
Four uL of substrate mix (final concentration, 50 mM imidazole pH 7.2, 50 mM KCl, 7 mM MgCl2, 10 uM ATP, 0.01% Tween 20, 0.05% BSA) was dispensed into white 1536 well plates. […] Following 8-minute incubation at ambient temperature, luminescence was measured by a ViewLux (Perkin Elmer) at 5 seconds exposure/plate.
Potency is the fitted concentration of half-maximal effect.

Protein sequences, listed by entry. Tags and fused reporters are not part of them.
UniProt P08659, whole entry: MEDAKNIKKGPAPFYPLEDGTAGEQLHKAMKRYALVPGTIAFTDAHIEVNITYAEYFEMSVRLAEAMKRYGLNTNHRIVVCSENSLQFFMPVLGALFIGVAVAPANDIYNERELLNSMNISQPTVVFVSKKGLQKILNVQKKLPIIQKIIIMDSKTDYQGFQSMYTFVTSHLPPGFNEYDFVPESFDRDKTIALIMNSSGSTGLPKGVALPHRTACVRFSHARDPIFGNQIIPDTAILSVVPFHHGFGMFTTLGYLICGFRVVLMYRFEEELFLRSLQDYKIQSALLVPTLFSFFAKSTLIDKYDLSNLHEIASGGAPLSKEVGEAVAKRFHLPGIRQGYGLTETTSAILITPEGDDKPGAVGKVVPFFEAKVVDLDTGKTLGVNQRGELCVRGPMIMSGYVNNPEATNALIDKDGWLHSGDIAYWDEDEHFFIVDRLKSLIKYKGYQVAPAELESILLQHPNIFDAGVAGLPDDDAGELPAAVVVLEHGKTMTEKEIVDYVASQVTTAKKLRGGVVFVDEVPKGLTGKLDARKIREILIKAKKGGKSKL

Row | SMILES | Potency
1 | CCC(CO)(C(=O)OC1CN2CCC1CC2)c1ccccc1 (stereo unspecified) | inconclusive: 1.26 µM
